# Like-named read-outs stand apart in the source and are kept apart here.
# Assays:
# [1] = cats, intravenous 2 mg/kg; cited from earlier work
# [2] = clinical; conditions: human, plasma
# [3] = Patient 1, day 38, subdermal 1 mg/kg/hr
# [4] = biological target: T1, P2X7R (Homo sapiens, UniProt Q99572); conditions: 50% receptor inhibition; cited from earlier work
# T1 sequence (Q99572 1-595): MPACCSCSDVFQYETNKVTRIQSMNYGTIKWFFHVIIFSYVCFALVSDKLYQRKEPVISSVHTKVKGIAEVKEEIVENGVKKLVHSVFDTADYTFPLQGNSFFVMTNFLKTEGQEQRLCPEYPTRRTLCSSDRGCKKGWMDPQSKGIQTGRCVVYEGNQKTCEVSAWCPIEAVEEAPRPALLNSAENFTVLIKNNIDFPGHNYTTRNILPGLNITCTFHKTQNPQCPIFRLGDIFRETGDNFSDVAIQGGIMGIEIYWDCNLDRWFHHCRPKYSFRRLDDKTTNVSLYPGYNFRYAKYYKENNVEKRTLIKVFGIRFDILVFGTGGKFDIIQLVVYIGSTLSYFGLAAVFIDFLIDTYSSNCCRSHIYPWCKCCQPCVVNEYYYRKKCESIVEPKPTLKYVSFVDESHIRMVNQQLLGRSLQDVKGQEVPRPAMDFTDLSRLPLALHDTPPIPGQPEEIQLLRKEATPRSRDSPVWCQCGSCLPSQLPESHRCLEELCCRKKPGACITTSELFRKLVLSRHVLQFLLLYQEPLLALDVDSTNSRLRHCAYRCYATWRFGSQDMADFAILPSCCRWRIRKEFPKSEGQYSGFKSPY
# [5] = cited from earlier work
# [6] = test system: severe ARDS from staphylococcus sepsis; conditions: continuous infusion 1 mg/kg/hour
smiles,measurement,setting,value
CCN(CC)CC(=O)Nc1c(C)cccc1C [lidocaine],peak plasma concentration,[1],3.6 µg/mL
same,concentration at 13 day,"[2]; iv, 0.6 mg/kg, lidocaine plasma concentration, Patient 1, day 13, i.v. 0.6 mg/kg/hr",3400 ng/mL
same,concentration at 14 day,"[2]; iv, 0.6 mg/kg, lidocaine plasma concentration, Patient 1, day 14, i.v. 0.6 mg/kg/hr",5400 ng/mL
same,concentration at 7 day,"[2]; iv, 0.6 mg/kg/hr, lidocaine plasma concentration, Patient 2, day 7, i.v.",2200 ng/mL
same,concentration at 8 day,"[2]; iv, 0.6 mg/kg/hr, lidocaine plasma level, Patient 2, day 8, i.v.",2900 ng/mL
same,concentration at 3 day,"[2]; other: subdermal infusion, 1 mg/kg/hour, Lidocaine plasma level, Patient 4, day 3, continuous subdermal",3400 ng/mL
same,concentration at 4 day,"[2]; other: subdermal infusion, 1 mg/kg/hour, Lidocaine plasma level, Patient 4, day 4, continuous subdermal",4200 ng/mL
same,concentration at 5 day,"[2]; other: subdermal infusion, 1 mg/kg/hour, lidocaine plasma concentration, Patient 4, day 5, continuous subdermal",5200 ng/mL
same,concentration at 4 day,"[2]; other: subdermal infusion, 1 mg/kg/hr, Lidocaine plasma level, Patient 6, day 4, subdermal 1 mg/kg/hr",4600 ng/mL
same,concentration at 5 day,"[2]; other: subdermal infusion, 1 mg/kg/hr, Lidocaine plasma level, Patient 6, day 5, subdermal 1 mg/kg/hr",3400 ng/mL
same,concentration at 21 day,"[2]; other: subdermal infusion, 1 mg/kg/hr, lidocaine plasma concentration, Patient 1, day 21, subdermal 1 mg/kg/hr",2600 ng/mL
same,concentration at 31 day,"[2]; other: subdermal infusion, 1 mg/kg/hr, lidocaine plasma concentration, Patient 1, day 31, subdermal 1 mg/kg/hr",1200 ng/mL
same,concentration at 14 day,"[2]; other: subdermal infusion, 1 mg/kg/hr, lidocaine plasma level, Patient 2, day 14, subdermal 1 mg/kg/hr",2700 ng/mL
same,concentration at 2 day,"[2]; other: subdermal infusion, 1 mg/kg/hr, lidocaine plasma level, Patient 3, day 2, subdermal 1 mg/kg/hr",3700 ng/mL
same,concentration at 5 day,"[2]; other: subdermal infusion, 1 mg/kg/hr, lidocaine plasma level, Patient 5, day 5, subdermal 1 mg/kg/hr",4000 ng/mL
same,concentration at 6 day,"[2]; other: subdermal infusion, 1 mg/kg/hr, lidocaine plasma level, Patient 5, day 6, subdermal 1 mg/kg/hr",3200 ng/mL
same,lidocaine plasma level,[3],2.3
same,IC50 value,[4],66 µg/mL
same,mean peak plasma concentration,[5]; subcutaneous 10 mg/kg,0.77 µg/mL
same,mean peak plasma concentration,[5]; subcutaneous 20 mg/kg,1.07 µg/mL
same,mean peak plasma concentration,[5]; subcutaneous 30 mg/kg,1.69 µg/mL
same,time to stabilisation of patient's condition,[6],≤ 1.5 h

# Reference: patent US12419848B2, “Treatment of hyperinflammatory syndrome” (priority 2020, dated 2025)
